The values that follow come from patent US20210196666.

Sequences of proteins named here, by UniProt entry; tags and fusion partners are left off. A change or cut given only in a name is not applied to a line headed by its entry.
UniProt Q08050: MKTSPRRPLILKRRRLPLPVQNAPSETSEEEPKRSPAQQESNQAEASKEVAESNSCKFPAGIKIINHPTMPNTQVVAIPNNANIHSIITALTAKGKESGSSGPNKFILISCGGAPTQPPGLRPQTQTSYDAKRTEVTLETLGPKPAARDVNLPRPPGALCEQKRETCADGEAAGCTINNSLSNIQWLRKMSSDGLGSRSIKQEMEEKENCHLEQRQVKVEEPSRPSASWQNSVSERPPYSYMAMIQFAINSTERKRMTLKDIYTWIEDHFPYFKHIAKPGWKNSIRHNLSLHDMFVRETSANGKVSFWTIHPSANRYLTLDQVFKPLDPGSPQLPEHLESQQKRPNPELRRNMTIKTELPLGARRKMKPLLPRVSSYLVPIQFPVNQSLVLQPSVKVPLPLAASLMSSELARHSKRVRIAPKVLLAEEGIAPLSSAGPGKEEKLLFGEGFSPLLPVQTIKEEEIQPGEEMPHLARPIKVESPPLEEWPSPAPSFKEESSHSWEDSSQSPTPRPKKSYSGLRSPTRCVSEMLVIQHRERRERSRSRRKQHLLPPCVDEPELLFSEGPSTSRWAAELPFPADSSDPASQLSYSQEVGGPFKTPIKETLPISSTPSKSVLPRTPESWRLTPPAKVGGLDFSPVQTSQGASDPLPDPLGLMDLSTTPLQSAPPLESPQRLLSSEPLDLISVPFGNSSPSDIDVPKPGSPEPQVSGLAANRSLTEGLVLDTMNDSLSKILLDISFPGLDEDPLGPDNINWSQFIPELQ

In the data set the target is FoxM1 (UniProt Q08050). Briefly: EMSA. The settings on record: extract from SLPI-treated MDA-MB-231 cells; supershifted by FoxM1 antibody; blocked by unlabeled FoxM1 oligo competitor; binding weaker in untreated extract; protein in an extract; protein details: endogenous, MDA-MB-231 cell protein extract; label: biotin end-label. Background: A gel shift assay detects complexes by their altered migration in electrophoresis.

Where cells or extracts were used, other partners may take part.

Regarding “CTGTTCAAGATGGAGTCGCTCTGGTTC (double strand) [MMP2 promoter FoxM1-site probe]”, the binding result is “binds”.
